# Some of the results follow. The main result of the screen is listed elsewhere. These columns were measured beside it and carry no call. Most of these compounds were active or inconclusive in the main read-out, so they are no random draw. Words in brackets tell the shape of the fitted curve; partial curves, single points and poor fits give uncertain potencies.
# Test: qHTS Assay for Lipid Storage Modulators in Drosophila S3 Cells;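 as to cell number change: cells counted by Cell Tracker Red CMTPX staining in the red channel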
# Details: BODIPY lipid droplet fluorescence, 18-24 h; for cell number change: measured here: cell count max response, cells fed with added oleic acid
# How it was run: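 Drosophila S3 cells loaded with oleic acid (400 uM, as added) and compounds at several concentrations; lipid droplets imaged by 488-nm laser-scanning cytometry, 500–530 nm intensity and object ratio to cell channel. Percent activity normalized to 20 uM Triacsin C.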
# [1] = measured here: cell number channel AC50, cells fed with added oleic acid
# [2] = measured here: lipid fluorescence (Fed channel) AC50, cells fed with added oleic acid
compound,measurement,setting,value
COc1cccc(C(=O)NC2CCCc3c2cnn3-c2ccc(C)c(C)c2)c1OC (stereo not given),cell number change,,-32.6%
same,AC50,[1],"10.3 µM [falling, partial curve, poor fit]"
Cc1ccc(-c2nnc(CSc3nc(C)nc4sc(C)c(C)c34)o2)cc1,cell number change,,12.5%
same,AC50,[1],"0.0103 µM [rising, full curve, poor fit]"
same,AC50,[2],"6.51 µM [rising, single point]"
Cc1cc(C)n(C(C)CNS(=O)(=O)c2ccccc2)n1 (stereo not given),cell number change,,16%
same,AC50,[2],"29.1 µM [rising, single point]"
CCN(Cc1ccccc1)Cc1cc(OC)cc(OC)c1,cell number change,,-24.8%
same,AC50,[2],"0.0058 µM [falling, full curve, poor fit]"
CC(C)=CCC/C(C)=C/C=N/NC(=O)c1cccc([N+](=O)[O-])c1,cell number change,,-35.8%
same,AC50,[1],"16.4 µM [falling, single point]"
same,AC50,[2],"18.4 µM [falling, single point]"
Cc1cccc(NC(=O)CCc2ccc(S(=O)(=O)NC3CCCCC3)cc2)c1,cell number change,,39.2%
same,AC50,[1],"9.2 µM [rising, partial curve]"
COc1ccccc1CN(C(=O)c1cnccn1)C(C(=O)NC1CCCCC1)c1cc(OC)c(OC)c(OC)c1 (stereo not given),cell number change,,17.9%
same,AC50,[2],"0.0731 µM [rising, partial curve, poor fit]"
CCCSc1ccc([C@@H]2[C@H]3C(=O)N(CC)C(=O)[C@H]3[C@]3(C(=O)OC)CCCCN23)cc1OC,cell number change,,10.4%
same,AC50,[1],"6.51 µM [falling, single point]"
same,AC50,[2],"16.4 µM [falling, partial curve, poor fit]"
CCc1ccc(NC(=O)C2CCN(S(=O)(=O)c3c(C)noc3/C=C/N(C)C)CC2)cc1,cell number change,,9.91%
same,AC50,[1],"4.11 µM [rising, partial curve]"
same,AC50,[2],"18.4 µM [rising, partial curve]"
COCC(=O)N1CCC(Oc2ccc(C(=O)NC3Cc4ccccc4C3)cc2)CC1,cell number change,,25.4%
same,AC50,[2],"3.26 µM [rising, full curve]"
O=C(c1ccco1)N1CCN(c2nc3ccccc3n3nnnc23)CC1,AC50,[1],"0.82 µM [rising, partial curve]"
same,AC50,[2],"1.46 µM [rising, full curve]"
Cc1ccc2c(c1)nnn2C1CCN(S(=O)(=O)c2ccc(C(=O)N(C)C3CCCCC3)cc2)CC1,cell number change,,63.4%
same,AC50,[1],"5.17 µM [rising, partial curve]"
same,AC50,[2],"1.64 µM [rising, full curve]"
O=C(CSc1ccccn1)Nc1ccc(Cl)c([N+](=O)[O-])c1,cell number change,,-21.8%
Cc1ccc(CNC(=O)c2ccc(CS(=O)Cc3ccccc3Cl)o2)cc1 (stereo not given),cell number change,,27%
same,AC50,[2],"3.66 µM [rising, single point]"
COc1cc(Cl)c(C)cc1NC(=O)COC(=O)c1cc[n+]([O-])cc1,cell number change,,32.7%
O=C(c1cccc(OC2CCN(C3CCCC3)CC2)c1)N1CCCCCCC1,cell number change,,-6.01%
same,AC50,[2],"0.0058 µM [falling, full curve, poor fit]"
N#Cc1c(NC(=O)CSc2nc(N)cc(=O)[nH]2)sc2c1CCCC2,AC50,[2],"7.31 µM [rising, partial curve, poor fit]"
C=CCn1c(SCC(=O)NC2CCCC2)nc2c([nH]c3ccccc32)c1=O,AC50,[2],"6.51 µM [rising, single point]"
COCCOC(=O)c1c(NC(=O)CN2CCOCC2)sc(C(N)=O)c1C,cell number change,,8.62%
same,AC50,[2],"2.91 µM [rising, single point]"
CC(C)(C)c1ccc(CNC(=O)C2CCCN2C(=O)Nc2ccccc2)cc1 (stereo not given),AC50,[1],"6.51 µM [rising, single point]"
CSc1ncccc1C(=O)N1CCN(S(=O)(=O)c2ccccc2)CC1,cell number change,,-16.2%
Fc1ccccc1NC(=S)Nc1cccnc1,cell number change,,-2.77%
same,AC50,[1],"0.326 µM [falling, partial curve, poor fit]"
COc1cccc(/C=N/n2c(=S)n(C)c3ccccc32)c1OC,cell number change,,-6.11%
same,AC50,[1],"2.06 µM [rising, partial curve]"
same,AC50,[2],"2.91 µM [rising, partial curve]"
COc1ccc(C(=O)N2CCN(CCNC(=O)C(=O)Nc3ccc(F)cc3)CC2)cc1,cell number change,,-1.32%
CN1OC(c2ccccc2)=C(CO)C1c1ccccc1 (stereo not given),cell number change,,40.4%
same,AC50,[1],"29.1 µM [rising, single point]"
same,AC50,[2],"29.1 µM [rising, single point]"
COC(=O)CSc1nc(C)cc(C(F)(F)F)c1C#N,AC50,[2],"6.51 µM [rising, single point]"
O=C(O)c1c2c(nc3ccccc13)/C(=C/c1ccc(OC(F)F)cc1)CCC2,cell number change,,6.3%
same,AC50,[2],"6.51 µM [falling, single point]"
COc1ccc(C(=O)COC(=O)Cc2c[nH]c3ccccc23)c(OC)c1,cell number change,,60.1%
same,AC50,[1],"8.2 µM [rising, partial curve, poor fit]"
same,AC50,[2],"6.51 µM [rising, partial curve]"
CCC(=O)c1cn(CC(=O)Nc2ccccc2F)c2ccccc12,cell number change,,-14.1%
CN(Cc1ccn[nH]1)C(=O)C1CCC(=O)N(Cc2cccc(C(F)(F)F)c2)C1 (stereo not given),cell number change,,-33.5%
same,AC50,[1],"29.1 µM [falling, single point]"
Cc1cccc(-n2ncc3c(N4CC(C)CC(C)C4)ncnc32)c1 (stereo not given),cell number change,,-11%
same,AC50,[2],"0.13 µM [rising, full curve, poor fit]"
COc1ccc(-n2sc3ccc(F)cc3c2=O)cc1,cell number change,,-85.2%
same,AC50,[1],"4.61 µM [falling, full curve]"
CC1(C)CC2(CC(c3ccccc3)c3ccc(O)cc3O2)NC(=S)N1 (stereo not given),cell number change,,-16.1%
same,AC50,[2],"0.092 µM [falling, full curve, poor fit]"
COc1cc2cc(CCCOC(=O)CCCC(=O)O)oc(=O)c2cc1OC,cell number change,,-6.1%
same,AC50,[2],"0.103 µM [rising, single point]"
COc1ccc(OC)c(C2CC(=O)N3CN(c4ccccc4F)CSC3=C2C#N)c1 (stereo not given),cell number change,,-52.5%
same,AC50,[1],"25.9 µM [falling, partial curve]"
same,AC50,[2],"29.1 µM [falling, single point]"
Cc1ccc(C(=O)CCc2ccc(N)cc2)cc1,cell number change,,19.9%
same,AC50,[2],"0.103 µM [rising, full curve, poor fit]"
Clc1ccc(C2CC(c3cccs3)n3ncnc3N2)cc1Cl (stereo not given),cell number change,,49.8%
same,AC50,[1],"20.6 µM [rising, single point]"
Cc1ccc(C(=O)COC(=O)C2CCC2)cc1,AC50,[1],"1.16 µM [rising, partial curve]"
O=Cc1ccc(OCCN2CCCC2=O)cc1,cell number change,,3.17%
same,AC50,[2],"29.1 µM [rising, single point]"
Cc1ccc(NS(=O)(=O)c2ccc(Cl)nc2)c(C)c1,cell number change,,16.1%
CN(C)Cc1cc(CN(C)C)c(O)c(CCc2ccccc2)n1,cell number change,,0.806%
same,AC50,[2],"4.61 µM [falling, full curve, poor fit]"
O=C1C(=Nc2cccc(Cl)c2)CC(c2ccc(Cl)cc2)N1c1cccc(Cl)c1 (stereo not given),AC50,[1],"1.16 µM [rising, partial curve]"
same,AC50,[2],"2.06 µM [rising, full curve, poor fit]"
O=C(Cn1cc(C(F)(F)F)ccc1=O)N/N=C/c1ccccc1O,cell number change,,-10.4%
CN(C)CCCC(=O)c1ccc2c(c1)OCO2,cell number change,,-24.2%
same,AC50,[1],"0.0206 µM [falling, full curve, poor fit]"
same,AC50,[2],"0.92 µM [falling, full curve]"
CN(C)S(=O)(=O)c1ccc(N2CCCC2)c(C(=O)NCc2cccc(C(F)(F)F)c2)c1,cell number change,,7.06%
same,AC50,[2],"0.13 µM [falling, full curve, poor fit]"
Cc1ccc(Cl)cc1N1CCN(C(=O)C2CCN(S(C)(=O)=O)CC2)CC1,cell number change,,47%
same,AC50,[1],"4.11 µM [rising, full curve]"
Cc1nc([N+](=O)[O-])c(N2CCN(Cc3ccccc3)CC2)n1Cc1ccccc1,cell number change,,-2.8%
Cc1cc(C)cc(N(CC(=O)Nc2cccc(C)c2C)S(=O)(=O)c2c(C)[nH]c(=O)[nH]c2=O)c1,AC50,[2],"29.1 µM [rising, single point]"
CN(C)/C=C/C(=O)c1cccc([N+](=O)[O-])c1,AC50,[1],"0.00461 µM [falling, full curve, poor fit]"
same,AC50,[2],"0.0058 µM [falling, full curve, poor fit]"
COc1ccc(-c2ccc3c(N)c(C(=O)NC(C)C)sc3n2)cc1OC,cell number change,,-7.72%
CCOc1ccc2nc(N3CCC(C(=O)NC4CCCCC4)CC3)sc2c1,cell number change,,1.73%
same,AC50,[1],"0.366 µM [rising, partial curve, poor fit]"
COCCN(C(=S)Nc1ccc(C(C)C)cc1)C(C)c1cccs1 (stereo not given),cell number change,,9.5%
same,AC50,[2],"20.6 µM [rising, single point]"
CC(C)Oc1ccc(CNC(=O)c2ccc3nc(N4CCOCC4)sc3c2)cc1,cell number change,,15.9%
O=C(Cn1c(=O)[nH]c2ccccc2c1=O)N1CCN(Cc2ccc3c(c2)OCO3)CC1,cell number change,,15.7%
same,AC50,[2],"29.1 µM [rising, single point]"
O=[N+]([O-])c1cc([N+](=O)[O-])c(Oc2cc(Cl)ccc2Cl)cc1NC1CCCCCCC1,cell number change,,2.1%
same,AC50,[2],"6.51 µM [falling, single point]"
Cc1c(C(=O)NC(=S)NCC(C)C)oc2ccccc12,cell number change,,4.19%
CC1CC(C)(C)NC(=S)N1CCCC(=O)Nc1ccc(Cl)cc1 (stereo not given),AC50,[2],"0.0058 µM [falling, full curve, poor fit]"
Cc1ccc2nc(SCC(=O)c3c[nH]c4ccccc34)[nH]c2c1,cell number change,,-4.14%
O=C(Cn1c(=O)oc2ccccc21)N1CCN(c2ccc(N3CCOCC3)nn2)CC1,cell number change,,12.4%
same,AC50,[2],"0.58 µM [rising, full curve, poor fit]"
Cc1ccc(C(=O)NC(=S)NNC(=O)c2ccccc2O)cc1,cell number change,,-21.2%

# 5 neighbouring entries already listed:
compound,measurement,setting,value
CCCSc1ccc([C@@H]2[C@H]3C(=O)N(CC)C(=O)[C@H]3[C@]3(C(=O)OC)CCCCN23)cc1OC,AC50,[2],"16.4 µM [falling, partial curve, poor fit]"
CCc1ccc(NC(=O)C2CCN(S(=O)(=O)c3c(C)noc3/C=C/N(C)C)CC2)cc1,cell number change,,9.91%
same,AC50,[1],"4.11 µM [rising, partial curve]"
same,AC50,[2],"18.4 µM [rising, partial curve]"
COCC(=O)N1CCC(Oc2ccc(C(=O)NC3Cc4ccccc4C3)cc2)CC1,cell number change,,25.4%

# Source: PubChem BioAssay AID2685 (National Center for Advancing Translational Sciences (NCATS), 2010)
